In paper PMC11786349 one finds binding data, which are given here for one substance.

These are yes or no findings as the source states them, for the method shown. Binding seen in cells or lysates may run through a third protein. Here binding means that the protein was enriched with, or labelled near, the bait; the list need not be complete.

In this assay the target is TRPV1 immunoprecipitated for mass spectrometry (UniProt O35433). As to the kind of experiment: affinity purification with mass spectrometry; immunoprecipitation of TRPV1, Coomassie-stained gel band excised, Q Exactive Plus mass spectrometer; cells not given.

“CDK5 found by mass spectrometry in the TRPV1 immunoprecipitate (from UniProt Q03114 1-292) (enzyme)”: the binding entry is “binds”.
